According to patent US9554576B2, “Tetrazolinone compounds and their use as pesticides” (SUMITOMO CHEMICAL COMPANY, LIMITED, priority 2012, dated 2017):
Some of these results come from one statement about several compounds together.

Assays:
[1] = system: powdery mildew fungi (Sphaerotheca fuliginea); assay: Test Example 6: cucumber powdery mildew control, foliar spray on cucumber (cv Sagamihanjiro), 500 ppm; format: in vivo; settings: 500 ppm foliar spray, spores sprinkling-inoculated, observed after 8 days
[2] = system: barley net blotch fungi (Pyrenophora teres); assay: Barley net blotch foliar spray preventive test; format: in vivo; settings: barley (cv; Mikamo Golden), 200 ppm foliar spray, inoculated after 2 days
[3] = system: wheat leaf blotch fungi (Septoria tritici); assay: Test Example 11: wheat leaf blotch foliar spray test; format: in vivo; settings: wheat (cv; Apogee), 200 ppm foliar spray, inoculated after 4 days
[4] = system: powdery mildew fungi (Sphaerotheca fuliginea); assay: Test Example 12: cucumber powdery mildew foliar spray test; format: in vivo; settings: cucumber (cv; Sagamihanjiro), 200 ppm foliar spray, observed after 8 days
[5] = system: soybean rust fungi (phakopsora pachyrhizi); assay: Test Example 13: soybean rust foliar spray test; format: in vivo; settings: soybean (cv: Kurosengoku), 200 ppm foliar spray, inoculated after 2 days
[6] = system: barley leaf blotch fungi (Rhynchosporium secalis); assay: Test Example 14: barley leaf blotch foliar spray test; format: in vivo; settings: barley (cv; Mikamo Golden), 200 ppm foliar spray, inoculated after 2 days
[7] = system: cucumber target spot fungi (Corynespora cassiicola); assay: Test Example 16: cucumber target spot foliar spray test; format: in vivo; settings: cucumber (cv; Sagamihanjiro), 200 ppm foliar spray, inoculated after 1 day
[8] = system: cucumber anthracnose fungi (Colletotrichum lagenarium); assay: Test Example 17: cucumber anthracnose foliar spray test; format: in vivo; settings: cucumber (cv; Sagamihanjiro), 200 ppm foliar spray, inoculated after 1 day
[9] = system: kidney bean sclerotinia rot fungi (Sclerotinia sclerotiorum); assay: Test Example 4: kidney bean sclerotinia rot control, foliar spray on kidney bean (cv Nagauzurasaitou), 500 ppm; settings: 500 ppm foliar spray, PDA medium with hyphae placed on leaves, observed after four days

CCOc1c(C)c(-c2ccc(OCc3c(SC)cccc3-n3nnn(C)c3=O)c(C)c2)nn1C [Present compound 39, 1-{3-methylthio-2-[2-methyl-4-(5-ethoxy-1,4-dimethyl-1H-pyrazol-3-yl)-phenoxymethyl]-phenyl}-4-methyl-1,4-dihydrotetrazole-5-one]
≤ 30%: lesion area in treated plants compared to the lesion area in untreated plants [1] | lesion area compared to the lesion area in untreated plants [2] | lesion area compared to the lesion area in untreated plants [3] | lesion area compared to the lesion area in untreated plants [4] | lesion area compared to the lesion area in untreated plants [5] | lesion area compared to the lesion area in untreated plants [6] | lesion area compared to the lesion area in untreated plants [7] | lesion area compared to the lesion area in untreated plants [8] | lesion area in treated plants compared to the lesion area in untreated plants [9]

CCOc1c(C)c(-c2ccc(OCc3c(OC(F)F)cccc3-n3nnn(C)c3=O)c(C)c2)nn1C [Present compound 43, 1-{3-difluoromethoxy-2-[2-methyl-4-(5-ethoxy-1,4-dimethyl-1H-pyrazol-3-yl)-phenoxymethyl]-phenyl}-4-methyl-1,4-dihydrotetrazole-5-one]
≤ 30%: lesion area compared to the lesion area in untreated plants [2] | lesion area compared to the lesion area in untreated plants [4] | lesion area compared to the lesion area in untreated plants [5] | lesion area compared to the lesion area in untreated plants [6] | lesion area compared to the lesion area in untreated plants [7] | lesion area compared to the lesion area in untreated plants [8]

Cc1cc(-c2nn(C)c(Cl)c2C)ccc1OCc1c(OC(F)F)cccc1-n1nnn(C)c1=O [Present compound 44, 1-{3-difluoromethoxy-2-[2-methyl-4-(5-chloro-1,4-dimethyl-1H-pyrazol-3-yl)-phenoxymethyl]-phenyl}-4-methyl-1,4-dihydrotetrazole-5-one]
≤ 30%: lesion area compared to the lesion area in untreated plants [2] | lesion area compared to the lesion area in untreated plants [3] | lesion area compared to the lesion area in untreated plants [4] | lesion area compared to the lesion area in untreated plants [5] | lesion area compared to the lesion area in untreated plants [6] | lesion area compared to the lesion area in untreated plants [7] | lesion area compared to the lesion area in untreated plants [8]
